Assay [1] deals with Smad3 (UniProt P84022). The assay can be described thus: yeast two-hybrid; list of Smad3 interactors.
For assay [2], the target named is LexA-Smad1 (full length Smad1 fused in frame to the LexA DNA binding domain (1-202) in pEG202) (UniProt P0A7C2). In words: yeast two-hybrid; list of Smad1 interactors.
Assay [3] has as its target HsN3 (human) (UniProt P28070). The assay can be described thus: list of HsN3 interactors; method not detailed.
The target of assay [4] is HsN3 (human) (UniProt P28070). The assay can be described thus: method not detailed.
Assay [5] concerns the target T1, ornithine decarboxylase (UniProt P11926).
T1 sequence (looked up): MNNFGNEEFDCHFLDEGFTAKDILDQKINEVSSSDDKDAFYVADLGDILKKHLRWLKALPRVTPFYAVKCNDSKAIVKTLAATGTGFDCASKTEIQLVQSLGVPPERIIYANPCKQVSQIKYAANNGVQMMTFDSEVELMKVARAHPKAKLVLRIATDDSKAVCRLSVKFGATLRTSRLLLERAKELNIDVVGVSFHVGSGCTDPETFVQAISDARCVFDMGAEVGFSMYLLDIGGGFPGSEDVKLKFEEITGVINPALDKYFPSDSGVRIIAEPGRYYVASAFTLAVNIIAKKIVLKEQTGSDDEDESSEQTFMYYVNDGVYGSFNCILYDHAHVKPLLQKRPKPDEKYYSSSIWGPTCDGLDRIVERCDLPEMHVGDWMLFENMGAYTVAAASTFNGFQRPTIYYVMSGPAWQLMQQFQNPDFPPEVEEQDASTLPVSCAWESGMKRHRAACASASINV
In words: yeast two-hybrid.

By UniProt entry, the sequences of proteins in these tests, tags left out. Where a name states a change or a piece, a line headed by the entry shows the natural chain unless it says otherwise. Chains listed by the source or under a name are the forms on record and can include a tag or linker. Residues count along the entry.
UniProt P84022: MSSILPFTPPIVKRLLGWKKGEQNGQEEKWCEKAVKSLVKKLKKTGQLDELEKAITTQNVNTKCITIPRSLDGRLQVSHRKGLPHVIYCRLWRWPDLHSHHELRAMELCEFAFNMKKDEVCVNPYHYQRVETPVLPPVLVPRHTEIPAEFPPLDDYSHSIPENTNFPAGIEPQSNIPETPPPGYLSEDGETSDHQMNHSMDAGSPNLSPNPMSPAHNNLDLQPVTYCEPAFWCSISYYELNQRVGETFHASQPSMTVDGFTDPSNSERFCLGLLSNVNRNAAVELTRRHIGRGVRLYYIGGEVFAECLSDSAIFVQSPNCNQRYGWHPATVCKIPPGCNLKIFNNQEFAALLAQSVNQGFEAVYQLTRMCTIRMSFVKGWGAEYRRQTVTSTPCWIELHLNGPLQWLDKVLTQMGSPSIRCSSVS
UniProt P0A7C2: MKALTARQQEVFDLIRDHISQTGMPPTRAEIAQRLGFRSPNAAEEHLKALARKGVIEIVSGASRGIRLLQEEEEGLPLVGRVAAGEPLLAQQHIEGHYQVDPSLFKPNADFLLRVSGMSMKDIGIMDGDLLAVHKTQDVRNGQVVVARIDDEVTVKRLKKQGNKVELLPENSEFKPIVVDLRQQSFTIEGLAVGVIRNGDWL
UniProt P28070: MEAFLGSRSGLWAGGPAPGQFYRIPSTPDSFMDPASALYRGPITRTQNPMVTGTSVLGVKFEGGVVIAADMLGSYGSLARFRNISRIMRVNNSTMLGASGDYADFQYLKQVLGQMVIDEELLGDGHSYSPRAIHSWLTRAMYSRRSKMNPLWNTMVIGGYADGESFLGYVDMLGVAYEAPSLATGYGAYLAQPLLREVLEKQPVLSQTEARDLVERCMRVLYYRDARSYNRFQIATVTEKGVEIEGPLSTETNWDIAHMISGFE
UniProt P54368, residues 101-228: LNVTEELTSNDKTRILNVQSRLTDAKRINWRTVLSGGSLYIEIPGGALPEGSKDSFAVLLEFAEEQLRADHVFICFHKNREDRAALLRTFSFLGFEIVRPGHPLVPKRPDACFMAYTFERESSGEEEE
Hn RNP core protein A1 (P09651, form named): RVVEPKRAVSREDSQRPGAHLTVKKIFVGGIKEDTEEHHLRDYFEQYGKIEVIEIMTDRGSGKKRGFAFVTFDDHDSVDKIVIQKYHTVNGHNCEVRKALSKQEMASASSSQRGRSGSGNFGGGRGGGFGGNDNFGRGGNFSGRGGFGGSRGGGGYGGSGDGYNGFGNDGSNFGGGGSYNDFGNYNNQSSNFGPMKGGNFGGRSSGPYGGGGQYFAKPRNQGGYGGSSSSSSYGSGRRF
UniProt Q15797: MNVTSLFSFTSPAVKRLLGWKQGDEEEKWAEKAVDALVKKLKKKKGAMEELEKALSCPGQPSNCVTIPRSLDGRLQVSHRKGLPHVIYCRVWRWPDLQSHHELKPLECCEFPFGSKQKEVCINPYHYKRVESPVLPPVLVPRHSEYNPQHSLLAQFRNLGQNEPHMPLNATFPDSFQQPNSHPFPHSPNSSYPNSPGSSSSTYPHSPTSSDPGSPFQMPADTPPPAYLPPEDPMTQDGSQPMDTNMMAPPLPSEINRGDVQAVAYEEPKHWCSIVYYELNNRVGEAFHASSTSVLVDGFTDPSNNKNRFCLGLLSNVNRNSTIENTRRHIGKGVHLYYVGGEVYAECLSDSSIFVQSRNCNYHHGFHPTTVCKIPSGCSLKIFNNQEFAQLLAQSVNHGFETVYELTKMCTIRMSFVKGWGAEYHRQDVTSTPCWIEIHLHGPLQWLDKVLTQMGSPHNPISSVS
UniProt Q13485, residues 323-552: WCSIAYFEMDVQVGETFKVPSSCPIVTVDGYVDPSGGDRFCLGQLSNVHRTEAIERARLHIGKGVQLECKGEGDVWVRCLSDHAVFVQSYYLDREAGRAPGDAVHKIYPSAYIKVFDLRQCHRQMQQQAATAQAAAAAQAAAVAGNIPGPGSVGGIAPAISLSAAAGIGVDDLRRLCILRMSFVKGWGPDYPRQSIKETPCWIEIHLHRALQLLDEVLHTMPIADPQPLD
UniProt P36897: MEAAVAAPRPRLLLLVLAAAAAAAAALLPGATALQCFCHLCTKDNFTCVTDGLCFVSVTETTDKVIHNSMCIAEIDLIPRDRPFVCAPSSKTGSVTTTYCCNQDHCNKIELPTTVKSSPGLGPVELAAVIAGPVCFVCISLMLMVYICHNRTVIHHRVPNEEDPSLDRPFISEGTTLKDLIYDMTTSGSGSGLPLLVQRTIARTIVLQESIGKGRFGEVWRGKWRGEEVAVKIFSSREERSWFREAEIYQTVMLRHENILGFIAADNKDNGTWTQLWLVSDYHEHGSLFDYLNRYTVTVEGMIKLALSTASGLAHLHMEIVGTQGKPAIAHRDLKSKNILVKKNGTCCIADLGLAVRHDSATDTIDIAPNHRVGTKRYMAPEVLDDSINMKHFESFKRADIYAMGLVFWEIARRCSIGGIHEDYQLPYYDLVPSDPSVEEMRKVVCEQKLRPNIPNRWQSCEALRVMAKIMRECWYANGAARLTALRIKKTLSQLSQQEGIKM
UniProt P09234: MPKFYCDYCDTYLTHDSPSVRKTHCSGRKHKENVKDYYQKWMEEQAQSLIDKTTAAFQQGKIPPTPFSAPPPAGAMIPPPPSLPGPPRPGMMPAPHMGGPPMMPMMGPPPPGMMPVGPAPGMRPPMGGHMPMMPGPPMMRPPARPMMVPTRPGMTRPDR
UniProt P06733, residues 230-434: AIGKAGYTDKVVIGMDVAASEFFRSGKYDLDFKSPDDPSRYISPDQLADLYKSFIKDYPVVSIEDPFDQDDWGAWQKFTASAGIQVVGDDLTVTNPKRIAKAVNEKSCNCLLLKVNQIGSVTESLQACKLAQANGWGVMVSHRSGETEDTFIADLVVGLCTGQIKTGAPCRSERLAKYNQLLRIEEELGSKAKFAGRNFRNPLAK

The target in assay [6] is LexA-Smad1 (full length Smad1 fused in frame to the LexA DNA binding domain (1-202) in pEG202) (UniProt P0A7C2). In words: yeast two-hybrid screen, LexA-Smad1 bait.
The target of assay [7] is antizyme (human) (UniProt P54368). In words: list of antizyme interactors; yeast two-hybrid (FIG. 30).
Assay [8] addresses Smad3 (UniProt P84022). The assay can be described thus: mammalian cells (data not shown).

These are yes or no findings as the source states them, for the method shown. Some entries that bind do so weakly or less than the wild type.

Consider “Hn RNP core protein A1 (from UniProt P09651 82-320)”, for which the binding entry in assay [1] is given as “binds”.
Smad1 (from UniProt Q15797 1-465): in assay [1], the binding entry was “binds”.
Turning to Smad3 (from UniProt P84022 1-425), in assay [2], the binding result was “binds”.
For “Smad3C (aa 231-424) (from UniProt P84022 231-424)”, the binding entry in assay [3] was “binds”.
Take “Smad4 MH2 domain (from UniProt Q13485 323-552)”: the binding result in assay [3] is listed as “binds”.
Still for that read-out and setting: next, “The complex of type I and type II receptors of TGF-β (from UniProt P36897 34-503; P37173 23-567)”: “binds”.
For the substance U1 SnRNP C (from UniProt P09234 1-159), the binding result in assay [2] and in assay [1] was “binds” in each case.
For antizyme (from UniProt P54368 101-228), the binding result in assay [4], in assay [5], in assay [2], in assay [6], in assay [7] and in assay [3] was “binds” throughout. Further, the binding entry in assay [8] and in assay [1] was “binds” in each case.
In the case of “enolase, clones S1+14 and S1+37 (from UniProt P06733 230-434) (enzyme)”, the binding result in assay [2], in assay [7] and in assay [3] was “binds” in each case.

For the origin of these results see patent publication US6906179.
